Source: ChEMBL document CHEMBL3988442, “University of Dundee, Small-Polar-MMV Screening Library” (2021).

Amino acid sequences for entries named in this document (tags omitted). Residues count along the entry.
UniProt A4I591, 1-473: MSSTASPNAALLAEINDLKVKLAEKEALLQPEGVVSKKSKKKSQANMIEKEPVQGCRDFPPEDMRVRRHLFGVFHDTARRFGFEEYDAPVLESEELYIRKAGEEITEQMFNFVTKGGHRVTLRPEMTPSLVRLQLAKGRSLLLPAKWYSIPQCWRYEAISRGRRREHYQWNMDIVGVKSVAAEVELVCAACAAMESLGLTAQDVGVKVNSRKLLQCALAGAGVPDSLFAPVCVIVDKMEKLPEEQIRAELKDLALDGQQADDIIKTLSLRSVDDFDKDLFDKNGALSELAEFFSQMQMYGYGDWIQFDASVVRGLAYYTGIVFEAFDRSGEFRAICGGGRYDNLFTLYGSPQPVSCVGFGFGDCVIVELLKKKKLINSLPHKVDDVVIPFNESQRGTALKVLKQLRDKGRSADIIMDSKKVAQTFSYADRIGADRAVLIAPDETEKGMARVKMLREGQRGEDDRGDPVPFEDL
UniProt Q4DA54, 1-478: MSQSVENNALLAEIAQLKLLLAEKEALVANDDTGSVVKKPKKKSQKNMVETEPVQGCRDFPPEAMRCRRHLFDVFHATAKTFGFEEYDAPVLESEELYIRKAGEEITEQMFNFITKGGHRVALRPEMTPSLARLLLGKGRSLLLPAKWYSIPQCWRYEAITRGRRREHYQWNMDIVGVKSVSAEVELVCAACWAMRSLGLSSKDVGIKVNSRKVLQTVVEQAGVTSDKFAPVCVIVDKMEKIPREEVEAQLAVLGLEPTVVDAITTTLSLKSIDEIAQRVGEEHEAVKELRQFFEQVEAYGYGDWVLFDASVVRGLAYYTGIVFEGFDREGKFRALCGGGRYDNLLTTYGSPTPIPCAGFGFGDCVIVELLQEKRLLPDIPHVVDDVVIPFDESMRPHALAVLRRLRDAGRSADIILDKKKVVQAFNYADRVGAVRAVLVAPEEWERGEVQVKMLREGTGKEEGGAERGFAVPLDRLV
UniProt P9WPC5, whole entry: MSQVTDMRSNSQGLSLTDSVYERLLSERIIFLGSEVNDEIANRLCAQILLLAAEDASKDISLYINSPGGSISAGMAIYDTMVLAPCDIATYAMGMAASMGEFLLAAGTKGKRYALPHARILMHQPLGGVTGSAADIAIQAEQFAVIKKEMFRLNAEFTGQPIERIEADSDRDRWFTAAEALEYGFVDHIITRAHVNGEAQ
UniProt P9WPC3, whole entry partner: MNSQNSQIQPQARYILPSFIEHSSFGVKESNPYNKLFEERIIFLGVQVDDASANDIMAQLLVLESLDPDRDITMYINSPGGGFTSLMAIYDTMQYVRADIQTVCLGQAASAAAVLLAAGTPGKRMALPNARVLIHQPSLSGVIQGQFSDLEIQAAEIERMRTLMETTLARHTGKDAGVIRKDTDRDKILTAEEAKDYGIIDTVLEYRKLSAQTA

LiHisRS: 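Histidine-tRNA ligase, Leishmania infantum (UniProt A4I591). Enzyme assay of histidyl-tRNA synthetase; the read-out is not stated. Compounds at 30 µM. The record gives no direction; compounds that gave an IC50 in retests scored well above the rest, so higher reads as stronger inhibition. The assay is labelled LdHisRS but filed under L. infantum. Of about 69,000 compounds tested this way, about 410 (0.6%) reached 50% or more in at least one test.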
TcHisRS: 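Enzyme assay of histidyl-tRNA synthetase; the read-out is not stated. Target: Histidine-tRNA ligase, Trypanosoma cruzi CL Brener (UniProt Q4DA54). Compounds at 30 µM. Higher reads as stronger inhibition (inferred: compounds with an IC50 in retests scored well above the rest). Size under these conditions: about 69,000 compounds, about 31 of them at 50% or above in at least one test.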
ClpP1P2: 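ClpP1P2, Mycobacterium tuberculosis (UniProt P9WPC5 and UniProt P9WPC3). Protease assay of ClpP1P2, read by the AMC dye that it sets free. Concentration: 50 µM. Higher reads as stronger inhibition, judged from the few compounds that gave an IC50. Most other retested compounds had strongly negative values. Size under these conditions: about 69,000 compounds, about 10 of them at 50% or above in at least one test.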

Each number is a percent effect as filed. The record does not define 0% and 100%; most values in the screen are far below 50% and negative numbers occur (in some assays of this library far below -100). This is an unselected part of the compounds tested.

| structure | LiHisRS | TcHisRS | ClpP1P2 |
|---|---|---|---|
| `Cc1cc(NC(=O)NC(C)CO)ccc1OCC(F)(F)F` (stereo unspecified) | 13.33 | -1.63 | -4.621 |
| `COc1ccc(CN(Cc2c[nH]cn2)CC2CCCO2)c(OC)c1` (stereo unspecified) | 15.62 | 6.383 | 2.506 |
| `COCc1nnc(C(=O)N2CCCC(O)C2)o1` (stereo unspecified) | 15.96 | 5.051 | -7.324 |
| `COC(=O)N1CC[C@@]2(C1)[C@H](OC)CN(c1ccccc1)S2(=O)=O` | 6.122 | 3.371 | -2.568 |
| `CN(C)C(=O)COCC1CN(Cc2ccsc2)Cc2nccn2C1` (stereo unspecified) | 4.587 | 9.244 | 11.15 |
| `Cc1ccc(F)c2c1N(C(=O)c1ccc(S(C)(=O)=O)cc1)CCC2` | 15.5 | 11.9 | -4.794 |
| `COC1CCN(CC(=O)NCc2ccc(OCC(N)=O)cc2)CC1` | 18.58 | 3.982 | -6.041 |
| `CCCn1cc(NC(=O)c2ccc(S(=O)(=O)CC)cc2)ccc1=O` | 114.4 | 35 | -3.993 |
| `CCN(Cc1c(C)nn(CC)c1C)S(=O)(=O)c1cn(C)nc1C` | 13.58 | 4.018 | -17.77 |
| `O=C(NCC1CCOC1)c1ccc(-c2ccccc2)[nH]c1=O` (stereo unspecified) | 14.29 | 9.302 | -30.95 |
| `CC(C)c1nnc2n1CCN(Cc1nc(-c3ccoc3)no1)C2` | 12.04 | 5.572 | -14.21 |
| `CCC(=O)N1CCC2(CC1)C(c1cccnc1)CC(=O)N2CCOC` (stereo unspecified) | 4.505 | 2.21 | -15.72 |
| `COCCC(=O)N1CCC2(CN(Cc3cccc(Cl)c3)C2)C1` | -21 | 4.082 | 15.8 |
| `CCOC(=O)CC1(Nc2nc(C)nc3c2cnn3C)CCCCC1` | 8.434 | 1.493 | -7.677 |
| `Cn1cc(C2=NOC(C(=O)NC3(c4cccc(F)c4)CCCC3)C2)cn1` (stereo unspecified) | 2.878 | 0.3831 | -6.633 |
| `Cc1cnn(CCC(=O)Nc2ccc(F)cc2OCC2CC2)c1` | 11.29 | 5.155 | -8.948 |
| `CCOCC1CC2(CCN(C(=O)C3CC=CC3)CC2)CO1` (stereo unspecified) | 11.11 | 2.674 | 8.798 |
| `CN(Cc1cn(-c2ccccc2)nn1)C1CCCN(c2cccnn2)C1` (stereo unspecified) | 11.4 | 4.36 | -22.26 |
| `Cc1c(C(C)NC(=O)C2CCCCC2)cnn1C` (stereo unspecified) | 8.929 | 1.754 | 6.042 |
| `O=C(Cn1ncc(N2CCNCC2)cc1=O)NCCc1ccc(F)cc1` | -32.26 | 1.235 | -9.11 |
| `CNC(=O)CSc1cnn(CC(=O)Nc2cccc(Cl)c2C)c(=O)c1Cl` | 17.31 | 5.785 | -5.769 |
| `CC(=O)NCC[C@H]1CC(C)(C)Oc2ccccc21` | 11.43 | 4.52 | -2.205 |
| `COc1cc(N2CCC3(CC2)CNC(=O)CO3)ncn1` | -1.923 | 5.028 | -15.86 |
| `CCOCC1CN(CCc2ccccc2)Cc2c1cnn2C` (stereo unspecified) | -6.579 | 7.609 | -5.941 |
| `CC(C)NC(=O)c1cc2c(s1)CCN2c1ncccn1` | 40.54 | 6.63 | -6.651 |
| `Cc1ccc(CSCCn2nc3ccccn3c2=O)cc1` | -4.959 | 0 | -7.18 |
| `NC(=O)C1CCN(C(=O)CSC2CCCc3ccccc32)CC1` (stereo unspecified) | 21.21 | 7.609 | 3.901 |
| `CCn1cc2c(n1)C(COC)CN(Cc1ccccn1)C2` (stereo unspecified) | 9.804 | 4.918 | 14.32 |
| `CN1CCN(C(=O)[C@H]2C[C@H]3[C@H](CCN3Cc3nccs3)O2)CC1` | 13.76 | 2.404 | -11.02 |
| `CCN(CC)S(=O)(=O)N1CCCC(c2cccc(C(=O)O)c2)C1` (stereo unspecified) | 17.31 | 1.667 | -9.985 |
| `O=C(Cc1ccncc1)N(CCO)CCSc1ccc(Cl)cc1` | 15.58 | 1.212 | -5.841 |
| `Cc1cc(CC(=O)NCc2ccnc(OCC(F)(F)F)c2)no1` | 10.4 | 5.703 | 9.775 |
| `Cc1cc(=O)n(CC(=O)NCC2CCCO2)c(-c2ccc(F)cc2)n1` (stereo unspecified) | 2.83 | 5.858 | -9.499 |
| `Cc1ccc(C(=O)N2CCCC(CNS(C)(=O)=O)C2)o1` (stereo unspecified) | 7.895 | 3.779 | -19.98 |
| `CCN(Cc1ccncc1)CC1(O)CCN(C(=O)c2ccccc2C)C1` (stereo unspecified) | 11.58 | 4.478 | 5.518 |
| `OCC1CCCCN1Cc1cc(O)c2cccc(F)c2n1` (stereo unspecified) | 18.25 | 12.94 | 3.966 |
| `COc1ccc2c(c1)NC(C1CCN(C(=O)C3CC3)CC1)NS2(=O)=O` (stereo unspecified) | 14.18 | 8.527 | 14.78 |
| `Cc1nc2ccc(Cl)cn2c1CN1CCN(S(=O)(=O)N2CCCC2)CC1` | 11.59 | 3.788 | -6.914 |
| `O=C(Cc1ccc2c(c1)CCO2)Nc1cccnc1-n1cncn1` | -0.8547 | -15.56 | 5.717 |
| `COCCC(=O)N1CCCC2(CCC(=O)N2CCOC)CC1` (stereo unspecified) | 12.2 | 4.511 | 1.316 |
| `CC(C)c1csc(C2CCCN(C(=O)c3ccc(=O)n(C)c3)C2)n1` (stereo unspecified) | 2.198 | -4.217 | -0.737 |
| `CCCc1noc(C2CCCCN2C(=O)CCc2cnn(C)c2)n1` (stereo unspecified) | 16.07 | 0.8772 | -7.32 |
| `O=C1[C@H]2CN(S(=O)(=O)c3ccccc3)C[C@H]2CN1Cc1cccnc1` | 12.33 | 2 | -5.118 |
| `O=C([C@@H]1C[C@H]2[C@H](CCN2Cc2nccs2)O1)N1CCOCC1` | 9.615 | 6.952 | 12.37 |
| `CCCNC(=O)C(C)Nc1cccc(Oc2ccc(C#N)cn2)c1` (stereo unspecified) | -8.219 | -7.937 | 17.17 |
| `CN1C(=O)C(c2ccccc2)CC12CCN(CCN1CCCC1=O)CC2` (stereo unspecified) | 9.677 | 9.195 | 8.962 |
| `CCC1CN(C(=O)Nc2cnc3c(cnn3C(C)C)c2)CCO1` (stereo unspecified) | 15.38 | 0.3831 | -3.333 |
| `Cc1cccnc1N1CCN(C(=O)CCc2ccccn2)CC1` | 12.9 | -3.704 | 2.763 |
| `CCCc1nc(C)cc(N2CCNC(C(=O)Nc3ccc(C)nc3)C2)n1` (stereo unspecified) | 17.02 | 17.92 | 1.359 |
| `CN1CCC/C1=N\S(=O)(=O)c1ccc(NC(=O)c2ccc(Cl)cc2)cc1` | 13.68 | 4.274 | 7.427 |
| `O=C(c1ccc(-c2ccoc2)nc1)N1CCCN(C2CCCCC2)CC1` | 8.602 | 4.663 | 22.81 |
| `CCc1nc(CN2CCCN(C(=O)CC(C)OC)CC2)cs1` (stereo unspecified) | 14.29 | 0 | -12.89 |
| `Cc1cn2nc(N3CCCC3C(=O)N3CCSCC3)sc2n1` (stereo unspecified) | 9.6 | 0 | -10.36 |
| `CC(=O)Nc1nc(C(=O)NC(C)c2cccnc2)cs1` (stereo unspecified) | 6.612 | -10.92 | -2.185 |
| `CCNC(=O)c1cn2cc(-c3ccccc3Cl)n(CC3CC3)c(=O)c2n1` | -3.279 | 0.8 | -14.27 |
| `CC(C)(C)n1cc(C2=CCN(CCN3CCCCCC3)CC2)cn1` | 12.12 | 14.81 | -0.4156 |
| `CCOc1cccc(C(C)NCc2ccc(OC)c(OC)c2OC)c1` (stereo unspecified) | 20.39 | 2.075 | -4.904 |
| `COCC1CC2(CCN(Cc3ccoc3)CC2)CN1Cc1ccccn1` (stereo unspecified) | 17.12 | 5.525 | 11.57 |
| `O=C1CC[C@]2(CC[C@@H](NCc3ccoc3)CC2)N1` | 3.883 | 1.942 | -18.85 |
| `CN(Cc1n[nH]c2c1CCCCC2)C(=O)c1cc(-c2cccn2C)n[nH]1` | 32.53 | 11.44 | -4.597 |

Once more, the final 5:

structure	LiHisRS	TcHisRS	ClpP1P2
CC(C)(C)n1cc(C2=CCN(CCN3CCCCCC3)CC2)cn1	12.12	14.81	-0.4156
CCOc1cccc(C(C)NCc2ccc(OC)c(OC)c2OC)c1 (stereo unspecified)	20.39	2.075	-4.904
COCC1CC2(CCN(Cc3ccoc3)CC2)CN1Cc1ccccn1 (stereo unspecified)	17.12	5.525	11.57
O=C1CC[C@]2(CC[C@@H](NCc3ccoc3)CC2)N1	3.883	1.942	-18.85
CN(Cc1n[nH]c2c1CCCCC2)C(=O)c1cc(-c2cccn2C)n[nH]1	32.53	11.44	-4.597